Results published in US20240035082.

System: Bst 2.0 DNA polymerase
Experiment: BLI
Conditions: purified recombinant protein, label: 5' biotin on template

“GGCAAATCACCAGAAGGCGGTTCCTGAATGAATGGGAAGCCTTCAAGAAGGTGATAAGCAGGAGAAACATACGAAGGCGCATAACGATACCACTGACCCTC / GAGGGTCAGTGGTATCGTTATG [phiX_matchC/FP2 primer-template]”: binds (cognate dNTP, 150 mM NaCl, Mg-free, 5/6 bases called).
“GGCAAATCACCAGAAGGCGGTTCCTGAATGAATGGGAAGCCTTCAAGAAGGTGATAAGCAGGAGAAACATACGAAGCATCATAACGATACCACTGACCCTC / GAGGGTCAGTGGTATCGTTATG [phiX_matchA/FP2 primer-template]”: binds more weakly (noncognate dNTP, simple exponential binding, affinity falls with added NaCl).

The exact form of at least one protein or probe is not confirmed. The comparison behind a weaker result is the experiment's own reference, which may not be listed here.
